Data from article PMC4967961.

Sequences of proteins named here, by UniProt entry; tags and fusion partners are left off.
UniProt Q15717, whole entry: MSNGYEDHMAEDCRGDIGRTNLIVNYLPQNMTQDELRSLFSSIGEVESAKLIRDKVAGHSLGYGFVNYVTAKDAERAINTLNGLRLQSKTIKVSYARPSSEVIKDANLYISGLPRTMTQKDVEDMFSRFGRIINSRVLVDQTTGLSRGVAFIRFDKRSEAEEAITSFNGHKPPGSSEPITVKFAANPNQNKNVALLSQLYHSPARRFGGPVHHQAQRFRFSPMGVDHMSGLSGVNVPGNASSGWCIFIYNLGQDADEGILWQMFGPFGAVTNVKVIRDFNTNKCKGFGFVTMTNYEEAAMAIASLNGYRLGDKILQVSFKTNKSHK

Target: HuR full-length (FL-HuR, rHuR) (UniProt Q15717)
Test: EMSA
Details: EMSA: 20 mM Tris-HCl pH 7.8, 150 mM KCl, 2 mM MgCl2, 0.1% Triton X-100, 0.5 mM DTT, heparin 5 mg/ml, BSA 1 mg/ml, 10% glycerol, on ice 15 min, 6% native PAGE, 0.5x TBE, recombinant protein, protein details: His, label: 32P end label

Sequence | Kd [µM] | binding result (excess miR-122* abolishes miR-122 binding)
AAAUUCAAACACCAUUGUCACACUCCACCAGAUUAA [miR-122* (miR-122 antisense RNA)] | 0.2 | –
UGGAGUGUGACAAUGGUGUUUG / AAAUUCAAACACCAUUGUCACACUCCACCAGAUUAA [miR-122/miR-122* hybrid] | – | no binding

For at least one entry, the source does not settle the construct or the ends of the probe. No signal at the amounts used counts as a negative.
